Protein sequences, listed by entry. Tags and fused reporters are not part of them. Lines headed by an entry give the natural chain unless they say otherwise; changes in a name come on top.
UniProt P48730: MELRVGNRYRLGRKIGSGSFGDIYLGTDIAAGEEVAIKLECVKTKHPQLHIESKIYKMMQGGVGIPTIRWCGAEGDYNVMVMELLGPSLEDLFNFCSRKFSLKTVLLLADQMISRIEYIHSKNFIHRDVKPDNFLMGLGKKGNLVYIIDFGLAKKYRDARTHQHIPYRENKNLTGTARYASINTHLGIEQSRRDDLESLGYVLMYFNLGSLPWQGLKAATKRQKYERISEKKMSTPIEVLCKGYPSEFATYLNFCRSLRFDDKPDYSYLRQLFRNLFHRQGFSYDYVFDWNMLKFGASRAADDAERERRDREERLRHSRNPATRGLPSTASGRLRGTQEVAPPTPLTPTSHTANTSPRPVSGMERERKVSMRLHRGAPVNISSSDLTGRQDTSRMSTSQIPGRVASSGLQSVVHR
UniProt Q08345: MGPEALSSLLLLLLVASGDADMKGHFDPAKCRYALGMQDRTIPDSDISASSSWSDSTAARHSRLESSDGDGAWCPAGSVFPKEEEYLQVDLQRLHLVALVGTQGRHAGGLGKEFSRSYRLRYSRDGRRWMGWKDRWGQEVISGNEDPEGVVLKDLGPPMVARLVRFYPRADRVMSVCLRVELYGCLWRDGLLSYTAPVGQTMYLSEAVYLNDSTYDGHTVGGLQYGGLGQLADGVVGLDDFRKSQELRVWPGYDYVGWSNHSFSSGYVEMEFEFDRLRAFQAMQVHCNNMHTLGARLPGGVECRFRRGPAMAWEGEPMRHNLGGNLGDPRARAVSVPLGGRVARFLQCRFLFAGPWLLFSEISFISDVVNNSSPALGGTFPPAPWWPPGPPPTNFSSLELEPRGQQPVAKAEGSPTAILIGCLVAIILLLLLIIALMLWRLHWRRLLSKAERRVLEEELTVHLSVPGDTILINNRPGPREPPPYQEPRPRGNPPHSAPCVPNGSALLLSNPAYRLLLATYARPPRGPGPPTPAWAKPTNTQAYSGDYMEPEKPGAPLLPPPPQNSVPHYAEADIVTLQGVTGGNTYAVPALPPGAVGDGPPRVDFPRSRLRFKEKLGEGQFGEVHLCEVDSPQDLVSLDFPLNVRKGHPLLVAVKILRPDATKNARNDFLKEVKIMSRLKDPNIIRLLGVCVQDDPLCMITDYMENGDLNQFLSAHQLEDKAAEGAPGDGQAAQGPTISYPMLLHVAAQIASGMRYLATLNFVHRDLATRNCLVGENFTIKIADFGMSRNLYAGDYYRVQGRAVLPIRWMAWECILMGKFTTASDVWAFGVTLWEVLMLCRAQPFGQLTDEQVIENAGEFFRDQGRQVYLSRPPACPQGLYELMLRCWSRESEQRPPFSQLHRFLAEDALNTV

Structures can show the parent of a compound that is named as a salt. Some of the results follow. The calls rarely recur for the same compound in another form.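 Kinases were expressed as nanoluciferase fusions in K562 cells and luminescence was read every 4 h between 2 and 18 h as percent of control, DMSO set to 100% and a positive control to 0%. A time point counts as decreased when the signal drops significantly (2 sigma). The hit call is the authors' own, does not follow from the count of time points alone, and its rule is not shown.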
The molecules below were run against CSNK1D (UniProt P48730) (assay: number of time points (of 5) at which kinase-Nluc abundance scored as decreased, DMSO-normalised (count); higher = more persistent destabilization). Details: K562; 2-18 h.
`Cc1ccc(Oc2nc3cc(-c4ccc5c(ccn5C)c4)c(Cl)cc3[nH]2)cc1C(=O)O` (10 µM) was tested, and the “number of time points” value was 0. With `COc1ccc([C@H]2c3[nH]c4ccc(Cl)cc4c3CCN2C(=O)Oc2ccc(Cl)cc2)cc1` (2.5 µM) the “number of time points” value was 0. With `COc1ncc(-c2nc(N3CCOCC3)nc3c(CN4CCC(C(C)(C)O)CC4)cc(F)cc23)cc1NS(C)(=O)=O` [Linperlisib] (10 µM) the “number of time points” value was 0. In the case of `C[C@@H](c1ccc2nccn2c1)n1nnc2ncc(-c3cnn(C)c3)nc21` [Savolitinib] (10 µM), the “number of time points” value is reported as 0. In the case of `CCn1c(-c2nonc2N)nc2cnc(Oc3cccc(NC(=O)c4ccc(OCCN5CCOCC5)cc4)c3)cc21` (10 µM), the “number of time points” value is reported as 0. For `COc1ccc(C(=O)Nc2sc3c(c2C(N)=O)CCCC3)cc1OC` (10 µM), the “number of time points” value was 0. In the case of `COc1ccc(CC(=O)Nc2nc3c(s2)CCc2ccccc2-3)cc1OC` (10 µM), the “number of time points” value is reported as 0. With `O=C1Nc2nc(-c3c(O)cccc3OCC3CC3)cc([C@@H]3CCCNC3)c2CO1` [Bay 65-1942 (hydrochloride)] (10 µM) the “number of time points” value was 0.

Each molecule was assayed against DDR1 (UniProt Q08345) in the same assay as above. Details: K562; 2-18 h.
For `COc1cc(S(C)(=O)=O)ccc1Nc1nc2ccc(-c3ccc(NC(=O)[C@H](C)c4ccc(F)cc4)cc3)cn2n1` [Empesertib] (10 µM), the “number of time points” value was 0. In the case of `CO[C@H]1C[C@@H]2CC[C@@H](C)[C@@](O)(O2)C(=O)C(=O)N2CCCC[C@H]2C(=O)O[C@H]([C@H](C)C[C@@H]2CC[C@@H](O)[C@H](OC)C2)CC(=O)[C@H](C)/C=C(\C)[C@@H](O)[C@@H](OC)C(=O)[C@H](C)C[C@H](C)/C=C/C=C/C=C/1C` [Rapamycin] (10 µM), the “number of time points” value is reported as 0. In the case of `COc1ccc(Cl)cc1NC(=O)Nc1cc(C)nc2ccccc12` (2.5 µM), the “number of time points” value is reported as 0. `CNc1nc(Nc2cnn(C3CCN(C4COC4)CC3F)c2Cl)ncc1C(F)(F)F` (stereo not given) (10 µM) was tested, and the “number of time points” value was 0. `Cc1ccc2nc(NC(=O)CSc3nc4c(c(=O)n3-c3ccccc3)SCC4)sc2c1` (2 µM) was tested, and the “number of time points” value was 0. In the case of `Cc1noc(C)c1-c1ccc(-c2cc(C(N)=O)c(NC(N)=O)s2)c(O[C@H]2CCNC2)c1` (10 µM), the “number of time points” value is reported as 0. With `Fc1ccc(-c2nc(-c3c(F)cccc3F)[nH]c2-c2ccncc2)cc1` (10 µM) the “number of time points” value was 0. With `C=CC(=O)Nc1ccc(CN(C(=O)Nc2c(Cl)c(OC)cc(OC)c2Cl)c2cc(Nc3ccc(N4CCN(C)CC4)cc3)ncn2)cc1` (10 µM) the “number of time points” value was 0. `CCN(CC)c1ccc2cc(C(=O)N3CCN(C(=O)C4=Cc5c(Br)cccc5S4(=O)=O)CC3)c(=O)oc2c1` (2 µM) was tested, and the “number of time points” value was 0. With `CN1CCN(c2ccc(Nc3ncc4nc(Nc5ccccc5)n([C@@H]5CCN(S(=O)(=O)C6CC6)C5)c4n3)cc2)CC1` (2.5 µM) the “number of time points” value was 4. For `COCCOc1ccc(-c2cn(-c3ccccc3)c3nc[nH]c(=O)c23)cc1` (10 µM), the “number of time points” value was 0. With `CC(C)CC1(O)CCN(C(=O)c2ccc(NS(=O)(=O)c3cccc4nccnc34)cc2)CC1` (10 µM) the “number of time points” value was 0. In the case of `Cc1cc(Nc2cc(Cl)nc(Oc3ccc([N+](=O)[O-])cc3)n2)n[nH]1` [Autophinib] (2.5 µM), the “number of time points” value is reported as 0. For `O=C(NCCO)c1ccc2c(c1)nc(Nc1cccc(Cl)c1)c1ccncc12` [CK2 inhibitor 2] (10 µM), the “number of time points” value was 0. With `COc1ccc(C2CC(c3ccccc3)=NN2c2ccc(S(N)(=O)=O)cc2)cc1` (stereo not given) (10 µM) the “number of time points” value was 0. For `C[C@@H]1O[C@@H](O[C@H]2[C@H](Oc3cc(O)c4c(=O)cc(-c5ccc(O)cc5)oc4c3)O[C@H](CO)[C@@H](O)[C@@H]2O)[C@H](O)[C@H](O)[C@H]1O` [Rhoifolin] (10 µM), the “number of time points” value was 0. For `O=[N+]([O-])c1cc(C(F)(F)F)cc([N+](=O)[O-])c1NNC(=S)Nc1ccc(F)cc1` (10 µM), the “number of time points” value was 0. With `CCc1cc(O)c(F)cc1-c1ccc2c(-c3nc4c([nH]3)CN(C3CCN(C)CC3)CC4)n[nH]c2c1` [JAK-IN-5 (hydrochloride)] (2 µM) the “number of time points” value was 4. `O=C(Nc1cccnc1)c1cc(C(=O)c2c(F)cccc2Br)c[nH]1` (10 µM) was tested, and the “number of time points” value was 0. With `COc1ccc2c(c1O)OC(C)(C)c1c-2ccc2c1C(=O)N(c1ccc(C(=O)c3ccccc3)cc1)C2=O` [Ampkinone] (10 µM) the “number of time points” value was 0. In the case of `CC1CCc2nc(N)c(C#N)c(-c3cccnc3)c2C1` (stereo not given) (10 µM), the “number of time points” value is reported as 0. With `COc1cc(F)c(F)c(Nc2ccc(I)cc2F)c1NS(=O)(=O)C1(C[C@H](O)CO)CC1` [Refametinib] (10 µM) the “number of time points” value was 0.

Reference: the supplement of paper PMC12823440, “Inhibitors supercharge kinase turnover through native proteolytic circuits” (Nature, 2025)
